# Data: patent US20250282824A1 (Stichting VU, priority 2021, published 2025)
# Test: general procedure: Fmoc solid-phase peptide synthesis; H-Rink amide ChemMatrix (linear peptides); 2-chlorotrityl chloride resin (cyclic peptides); COMU/Oxyma/DIPEA (manual); PyBOP then HATU with Oxyma/DIPEA (automated)
# Conditions: for final HPLC purity / isolated yield: whole synthesis, scale of the general procedure 10-100 umol (linear), 0.1 mmol to 0.5 mmol (cyclic); for final HPLC purity: 210 nm; for cyclisation yield: cyclisation step
substance,measurement,setting,value
[βA V [S5* R N D V p P D S L L S5*] F βA],final HPLC purity,,~90%
same,isolated yield,overall,<1%
[βA V [C R N D V p P D S L L C] F βA],cyclisation yield,run 1,64%
same,cyclisation yield,run 2,24%
same,final HPLC purity,,>95%
same,isolated yield,"overall, run 1",1%
same,isolated yield,"overall, run 2",2%
same,isolated yield,"overall, run 3",1%
same,isolated yield,"overall, run 4",5%
same,isolated yield,"overall, run 5",2%
same,isolated yield,"overall, run 6",4%
[βA V T R N [C V p P D C] L L V F βA],cyclisation yield,run 1,38%
same,cyclisation yield,run 2,37%
same,cyclisation yield,run 3,60%
same,final HPLC purity,run 1,>95%
same,final HPLC purity,run 2,>95%
same,final HPLC purity,run 3,>95%
same,final HPLC purity,run 4,95%
same,final HPLC purity,run 5,>95%
same,final HPLC purity,run 6,95%
same,final HPLC purity,run 7,95%
same,final HPLC purity,run 8,>95%
same,isolated yield,"overall, run 1",3%
same,isolated yield,"overall, run 2",2%
same,isolated yield,"overall, run 3",1%
same,isolated yield,"overall, run 4",2%
same,isolated yield,"overall, run 5",2%
same,isolated yield,"overall, run 6",2%
same,isolated yield,"overall, run 7",4%
same,isolated yield,"overall, run 8",3%
[βA V T R [S5* D V p P D S S5*] L V F βA],final HPLC purity,,~90%
same,isolated yield,overall,<1%
D S L L V F βA βA V T R N D V,final HPLC purity,,95%
same,isolated yield,,<1%
G R K K R R Q R R R P Q,final HPLC purity,,>95%
same,isolated yield,,16%
D E L I S F K D E G E Q E βA βA E R D L A D V K S S L V N,final HPLC purity,,95%
same,isolated yield,,2%
[βA V T R K (F I)D V p P D S L L V F βA],final HPLC purity,,>95%
same,isolated yield,overall,4%
[βA V [C R K (F I)D V p P D S L L C] F βA],final HPLC purity,,>95%
same,isolated yield,overall,<1%
[βA V C R N D V p P D S L L C F βA],final HPLC purity,,>95%
same,isolated yield,overall,8%
[βA V T R C D V p P D S C L V F βA],final HPLC purity,,95%
same,isolated yield,overall,4%
[βA V T R [C D V p P D S C] L V F βA],cyclisation yield,run 1,17%
same,cyclisation yield,run 2,14%
same,cyclisation yield,run 3,45%
same,final HPLC purity,run 1,>95%
same,final HPLC purity,run 2,>95%
same,final HPLC purity,run 3,>95%
same,final HPLC purity,run 4,>95%
same,final HPLC purity,run 5,>95%
same,final HPLC purity,run 6,95%
same,final HPLC purity,run 7,>95%
same,final HPLC purity,run 8,86%
same,isolated yield,"overall, run 1",<1%
same,isolated yield,"overall, run 2",2%
same,isolated yield,"overall, run 3",2%
same,isolated yield,"overall, run 4",1%
same,isolated yield,"overall, run 5",1%
same,isolated yield,"overall, run 6",1%
same,isolated yield,"overall, run 7",4%
same,isolated yield,"overall, run 8",<1%
V T R N D V p P D S L L V F,final HPLC purity,,>95%
same,isolated yield,run 1,5%
same,isolated yield,run 2,12%
D S L L V F βA βA V T R N D V A P T L B S V P Q,final HPLC purity,,90%
same,isolated yield,,<1%
[βA V T R N C V p P D C L L V F βA],final HPLC purity,,>95%
same,isolated yield,overall,6%
[βA V [S6* R N D V p P D S L L S6*] F βA],final HPLC purity,,~90%
same,isolated yield,overall,<1%
[βA V T R N D V p P D S L L V F βA],final HPLC purity,,>95%
same,isolated yield,overall,10%
